In PMC11618752 one finds binding data, which are given here for 2 molecules.

Amino acid sequences for entries named in this document (tags omitted). A change or cut given only in a name is not applied to a line headed by its entry.
UniProt Q9BRJ7: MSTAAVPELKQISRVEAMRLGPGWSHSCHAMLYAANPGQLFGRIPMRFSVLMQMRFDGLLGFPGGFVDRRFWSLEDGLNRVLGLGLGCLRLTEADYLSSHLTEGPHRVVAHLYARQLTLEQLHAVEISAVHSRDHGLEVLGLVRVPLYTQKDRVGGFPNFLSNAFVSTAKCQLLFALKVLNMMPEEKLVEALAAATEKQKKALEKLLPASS
UniProt O14980: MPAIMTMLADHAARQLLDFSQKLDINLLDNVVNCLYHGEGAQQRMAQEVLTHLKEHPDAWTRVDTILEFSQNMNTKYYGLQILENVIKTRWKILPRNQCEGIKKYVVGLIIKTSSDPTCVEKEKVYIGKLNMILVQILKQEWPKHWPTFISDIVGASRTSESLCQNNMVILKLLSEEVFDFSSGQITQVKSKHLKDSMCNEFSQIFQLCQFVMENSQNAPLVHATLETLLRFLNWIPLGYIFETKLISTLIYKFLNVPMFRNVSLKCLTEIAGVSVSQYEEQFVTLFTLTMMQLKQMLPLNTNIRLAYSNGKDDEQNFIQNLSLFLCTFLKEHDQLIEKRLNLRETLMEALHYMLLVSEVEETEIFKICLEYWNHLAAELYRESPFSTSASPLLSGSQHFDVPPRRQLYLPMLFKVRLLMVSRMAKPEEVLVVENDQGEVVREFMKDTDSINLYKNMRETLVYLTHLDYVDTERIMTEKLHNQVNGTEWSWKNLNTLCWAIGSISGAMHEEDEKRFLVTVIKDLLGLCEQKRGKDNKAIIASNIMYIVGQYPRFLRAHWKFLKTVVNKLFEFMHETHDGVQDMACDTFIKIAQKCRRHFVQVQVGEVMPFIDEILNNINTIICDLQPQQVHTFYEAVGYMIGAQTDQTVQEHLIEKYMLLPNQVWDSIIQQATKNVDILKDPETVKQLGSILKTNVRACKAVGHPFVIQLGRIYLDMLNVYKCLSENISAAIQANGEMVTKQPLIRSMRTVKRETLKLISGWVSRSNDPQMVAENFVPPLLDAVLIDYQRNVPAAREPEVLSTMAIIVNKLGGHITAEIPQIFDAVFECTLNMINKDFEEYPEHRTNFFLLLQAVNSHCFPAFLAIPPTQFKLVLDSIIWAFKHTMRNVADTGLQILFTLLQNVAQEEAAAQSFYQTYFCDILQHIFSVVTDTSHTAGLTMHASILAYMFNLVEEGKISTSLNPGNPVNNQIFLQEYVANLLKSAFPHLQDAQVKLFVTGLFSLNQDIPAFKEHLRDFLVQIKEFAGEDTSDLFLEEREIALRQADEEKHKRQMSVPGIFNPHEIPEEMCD

Results are given in words; binding and its absence hold for the method and conditions named. For some assays here: In cells and extracts the contact can be indirect. Some binding calls cover weakened binding; strength is not graded here.

Experiment [1] deals with Flag-tagged wild-type TIRR (UniProt Q9BRJ7). The experiment is described as follows: co-IP; ectopically expressed E3 ubiquitin ligases with Flag-TIRR; whole-cell lysates of 293T cells transfected with Myc-DTX3L and Flag-TIRR (Fig. 4d); other ligases in Supplementary Fig. 3a-c, legends not shown.
The target of experiment [2] is XPO1 protein, recombinant (UniProt O14980). In words: ITC; XPO1 (~20 μM, 0.2 ml) in the cell, NES peptide (~200 μM) in the syringe; 25 °C; first injection 0.4 μl, then 19 injections of 2 μl; MicroCal iTC200; both purified. For orientation: ITC needs no label: the signal is the heat of the interaction.

B1: TRIM56, ectopically expressed (enzyme, UniProt Q9BRZ2 1-755)
chain: MVSHGSSPSLLEALSSDFLACKICLEQLRAPKTLPCLHTYCQDCLAQLADGGRVRCPECRETVPVPPEGVASFKTNFFVNGLLDLVKARACGDLRAGKPACALCPLVGGTSTGGPATARCLDCADDLCQACADGHRCTRQTHTHRVVDLVGYRAGWYDEEARERQAAQCPQHPGEALRFLCQPCSQLLCRECRLDPHLDHPCLPLAEAVRARRPGLEGLLAGVDNNLVELEAARRVEKEALARLREQAARVGTQVEEAAEGVLRALLAQKQEVLGQLRAHVEAAEEAARERLAELEGREQVARAAAAFARRVLSLGREAEILSLEGAIAQRLRQLQGCPWAPGPAPCLLPQLELHPGLLDKNCHLLRLSFEEQQPQKDGGKDGAGTQGGEESQSRREDEPKTERQGGVQPQAGDGAQTPKEEKAQTTREEGAQTLEEDRAQTPHEDGGPQPHRGGRPNKKKKFKGRLKSISREPSPALGPNLDGSGLLPRPIFYCSFPTRMPGDKRSPRITGLCPFGPREILVADEQNRALKRFSLNGDYKGTVPVPEGCSPCSVAALQSAVAFSASARLYLINPNGEVQWRRALSLSQASHAVAALPSGDRVAVSVAGHVEVYNMEGSLATRFIPGGKASRGLRALVFLTTSPQGHFVGSDWQQNSVVICDGLGQVVGEYKGPGLHGCQPGSVSVDKKGYIFLTLREVNKVVILDPKGSLLGDFLTAYHGLEKPRVTTMVDGRYLVVSLSNGTIHIFRVRSPDS
Turning to B1, the binding result in experiment [1] is “binds”. Turning to LLFALKVLNM (peptide, UniProt Q9BRJ7 173-182) [NES peptide (173–182 aa of TIRR)], the binding result in experiment [2] is recorded as “binds”.
